Source: patent US5985822A, “Inhibition of glial cell proliferation with N-CAM homophilic peptides” (The Scripps Research Institute, priority 1995, dated 1999)

Test system: rat forebrain astrocytes in primary culture
Test: Astrocyte proliferation assay ([3H]-thymidine incorporation normalized to [35S]-methionine)
Format: cell-based
Experimental: Primary cultures of astrocytes were prepared from the forebrains of 4-5 day old neonatal rats. After decapitation and removal of the forebrains from the skull, the meninges were carefully peeled off, and forebrain tissue was triturated in sterile phosphate buffered saline (PBS) using firepolished pipettes. The resulting suspension of tissue fragments was incubated in Hank's balanced salt solution (Gibco BRL) with 2.5 mg/ml trypsin, 1 mM EDTA and 0.1 mg/ml DNase (Boehringer) at 37° C. for 15 minutes. […] The pellet was resuspended in serum free medium (SFM) consisting of Dulbecco's Modified Eagle Medium (D-MEM), 2 mM L-glutamine, 50 U/ml penicillin G sodium and 50 μg/ml streptomycin sulfate (all from Gibco BRL) supplemented by 10% (vol/vol) fetal bovine serum (FBS). The cells were transferred to a standard 100 mm tissue culture dish (Falcon) and incubated at 37° C. for 1-2 hours. […]
After cell attachment, the culture medium was exchanged for SFM. […] Counts were solubilized overnight by adding 100 μl 1 N KOH to each well, neutralized with 100 μl 1 N HCl, transferred to liquid scintillation vials and counted in 3 ml of Beckman Ready Safe liquid scintillation cocktail on a Packard 1600 TR counter. […] In this paper, proliferation is expressed as [^3 H]-thymidine incorporation normalized to [35]-methionine incorporation and calculated as [^3 H] dpm/ [35] dpm.

B1: N-CAM: neural cell adhesion molecule purified from early postnatal rat brains by affinity chromatography, mainly polysialylated embryonic form (protein, UniProt P13596 20-858, looked up)
Neural cell adhesion molecule …: LQVDIVPSQGEISVGESKFFLCQVAGDAKDKDISWFSPNGEKLSPNQQRISVVWNDDDSSTLTIYNANIDDAGIYKCVVTAEDGTQSEATVNVKIFQKLMFKNAPTPQEFKEGEDAVIVCDVVSSLPPTIIWKHKGRDVILKKDVRFIVLSNNYLQIRGIKKTDEGTYRCEGRILARGEINFKDIQVIVNVPPTVQARQSIVNATANLGQSVTLVCDADGFPEPTMSWTKDGEPIENEEEDDEKHIFSDDSSELTIRNVDKNDEAEYVCIAENKAGEQDASIHLKVFAKPKITYVENQTAMELEEQVTLTCEASGDPIPSITWRTSTRNISSEEKASWTRPEKQETLDGHMVVRSHARVSSLTLKSIQYTDAGEYICTASNTIGQDSQSMYLEVQYAPKLQGPVAVYTWEGNQVNITCEVFAYPSATISWFRDGQLLPSSNYSNIKIYNTPSASYLEVTPDSENDFGNYNCTAVNRIGQESLEFILVQADTPSSPSIDRVEPYSSTAQVQFDEPEATGGVPILKYKAEWKSLGEEAWHSKWYDAKEANMEGIVTIMGLKPETRYAVRLAALNGKGLGEISAATEFKTQPVREPSAPKLEGQMGEDGNSIKVNLIKQDDGGSPIRHYLVKYRALASEWKPEIRLPSGSDHVMLKSLDWNAEYEVYVVAENQQGKSKAAHFVFRTSAQPTAIPANGSPTAGLSTGAIVGILIVIFVLLLVVMDITCYFLNKCGLLMCIAVNLCGKAGPGAKGKDMEEGKAAFSKDESKEPIVEVRTEEERTPNHDGGKHTEPNETTPLTEPEKGPVETKSEPQESEAKPAPTEVKTVPNEATQTKENESKA
modifications: polysialylated embryonic form
**Q.** For B1, which cell morphology (N-CAM 10 μg/ml) is on record?
**A.** The cell morphology was “somewhat rounded appearance”.

**Q.** What about the cell morphology (N-CAM ≤2 μg/ml) of the same molecule?
**A.** The cell morphology was “no gross changes in cell morphology”.
